Mtb growth Cornell: 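Whole-cell assay for inhibitors of Mycobacterium tuberculosis growth, labelled Cornell in the record; the read-out is not stated. The concentration is filed as 10 mM, unlikely as a test dose, so the dose is not known. The record gives no direction; compounds strong in two other growth screens of this library score well above the rest, so higher reads as stronger inhibition. About 53,000 compounds were tested under these conditions; 1.7% (about 900) showed 50% or more at least once.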
Mtb heat-shock: 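Assay on Mycobacterium tuberculosis, filed only as a heat shock assay from Cornell; the read-out is not stated. The concentration is filed as 10 mM, unlikely as a test dose, so the dose is not known. The record gives no direction; compounds that gave an IC50 in retests scored well above the rest, so higher reads as stronger inhibition. Size under these conditions: about 69,000 compounds, about 930 of them at 50% or above in at least one test.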

The filed quantity is “Percent Effect” (%).
The record does not define 0% and 100%; most values in the screen are far below 50% and negative numbers occur (in some assays of this library far below -100).
The compounds are a random part of those screened.
A dash means the value is not listed here; it may have been measured.

Compound	Mtb growth Cornell	Mtb heat-shock
O=C1CCC2(CCCN(C(=O)c3ccco3)CC2)N1 (stereo not shown)	-	-2.589
c1cc(CN2CCSC3(CCCCC3)C2)no1	29.76	-21.87
CC(CC(=O)Nc1ccc(C(=O)N(C)C)c(Cl)c1)n1cccc1 (stereo not shown)	-	-1.185
Cc1ccc(S(=O)(=O)Nc2ccc(-n3cccc3C(=O)O)c(C)c2)cc1	24.84	4.761
O=C(O)C(F)(F)F.[H][C@@]12OCCN(Cc3csc(C)n3)[C@@]1([H])CC[C@H]2OCC(=O)N(C)C	-	-30.17
Nc1cccnc1N1CCN(c2ccccc2)CC1	11.1	8.5
CC(C)NC(=O)NCC(Cc1ccc(F)cc1)C(N)=O (stereo not shown)	-16.75	-7.01
CN(C)CC1CN(Cc2coc(-c3ccccc3)n2)CCO1 (stereo not shown)	-21.36	-4.574
O=C(O)CNc1cc(-c2cc(C3CC3)ncn2)c2cc[nH]c2n1	-	-14.92
CCNc1cc2c(nn1)CCN(C(=O)C(C)c1c(C)noc1C)C2 (stereo not shown)	17.39	-13.37
Cc1ncc(C(=O)N2CCCC(Cc3nccs3)C2)cn1 (stereo not shown)	-13.45	-12.6
Cc1ccc(CN2CCC3(CC2)C(c2ccccc2)CC(=O)N3C)o1.O=C(O)C(F)(F)F (stereo not shown)	-6.898	26.84
CC(=O)Nc1cccc(CNC(=O)N(C)Cc2ccccc2)c1	11.81	-26.85
O=C(c1cc(Cl)c2c(c1)OCO2)N1CCCC(n2cncn2)C1 (stereo not shown)	-33.16	-10.65
[H][C@@]12C[C@@H](OC)C[C@]1([H])CN(C(=O)Cc1ccc(C)s1)C2	39.78	22.49
CCn1ccc(-c2nnc(SCC(=O)NCC(C)C)n2CC)n1	10.13	9.14
Cc1cccc(N(C)Cc2cc(=O)n3oc(C)cc3n2)c1	11.81	-4.409
CN1CCC(Cc2cnc3ccccc3c2)C1 (stereo not shown)	23.56	-19.06
CC[C@@]1(O)CCN(Cc2cc(C3CCCCC3)no2)C[C@H]1O	5.943	-1.09
COc1ccc2c(c1)CN(Cc1ccco1)C(=O)CCN2CC(C)(C)O	-26.89	-5.078
CCc1noc(CS(=O)(=O)Cc2ccccc2Cl)n1	-72.18	95.51
CCC(=O)NC(c1cccnc1)c1cc(C)ccc1C (stereo not shown)	17.83	21.75
OCc1csc(N2C[C@@H](CN3CCCCCC3)[C@@H](CO)C2)n1	-1.997	-12.82
CC(Cn1cccn1)NC(=O)NCc1ccoc1 (stereo not shown)	-	4.485
CC(C)(C)C(=O)NCC(=O)Nc1cccnc1	23.02	18.68
CN(Cc1nc(Cc2cccc(F)c2)no1)C1CCOCC1	-	-8.545
Cc1nc2c(N(CCC(N)=O)CCc3ccccc3)ncnc2o1	-11.12	-37.02
Cc1ccc(C(=O)N2CCOc3nc(C)ccc32)c(F)c1	-2.985	7.643
O=C(O)C(F)(F)F.O=C(O)C(F)(F)F.[H][C@@]12CN(Cc3cccs3)C[C@@]1([H])N(Cc1ccncc1)C(=O)CO2	0.9368	-6.797
CCc1nnc(CNC(=O)CCC2CCCN(C)C2)s1 (stereo not shown)	2.454	7.586
Cc1ccc(NC2CCCN(CCCc3ccccc3)C2)nn1 (stereo not shown)	-31.2	-22.9
Cc1ncc2c(n1)CN(C(C(N)=O)c1ccccc1)CC2 (stereo not shown)	-20.26	-20.43
CCS(=O)(=O)c1ccc2oc([C@H]3CCN(Cc4ccccn4)C3)nc2c1	21.88	-56.38
COCC1CC2(CCN(C(=O)c3ccco3)CC2)CN1C(C)C.O=C(O)C(F)(F)F (stereo not shown)	-	-13.41
CNc1cc2c(nn1)CCN(C(=O)c1ccc(-n3nccc3C)cc1)C2	-	-14.7
CCSCCC(=O)NCc1cc2n(n1)CCN(C(=O)N(C)C)C2	-14.82	-10.22
Nc1nccnc1C(=O)N(Cc1ccccc1O)CC1CCCO1 (stereo not shown)	20.37	8.355
Cn1cc(CN2CCC(c3[nH]ncc3S(C)(=O)=O)C2)cn1 (stereo not shown)	-	-12.07
COCCOCc1cccc(NC(=O)N2CCCC2c2ccncc2)c1 (stereo not shown)	-	9.207
COc1cc(CN(C)C(=O)NCc2cccc3c2OCO3)ccc1SC	-	-20.71
Cc1noc(-c2ccnc(Oc3cccc(CN4CCCC4)c3F)c2)n1	-14.8	15.61
Cc1ccc(C(=O)NCCS(=O)(=O)Cc2ccccc2)c(C)c1	-	-27.09
COc1ccc2ccccc2c1CNCC1CCS(=O)(=O)C1.Cl (stereo not shown)	-35.4	-10.53
O=C(Cc1ccc(-n2cnnn2)cc1)Nc1cnn(CC(F)F)c1	24.9	1.98
O=C(NCC(O)c1cccc(F)c1)C1CCN(C(=O)C2CCC2)CC1 (stereo not shown)	-	-198.3
Cn1c2c(c(=O)n1C)CN(C(=O)c1ccncc1F)CCC2	-0.6653	2.51
[H][C@@]12CCN(CC3CCOCC3)[C@@]1([H])CCN2C(=O)c1ccc(C)nc1	13.85	-2.652
O=C(Nc1nc2c(s1)CN(S(=O)(=O)C1CC1)CC2)c1ccccn1	-2.544	40.78
Cl.NCC1(c2cccc(Br)c2)CCOCC1	30.95	1.107
CCOc1ccc(CC(=O)N2CCCC2c2cc(C)on2)cc1 (stereo not shown)	13.13	0.8725
COc1cnc(N2C[C@@H](CN3CCOCC3)[C@@H](CO)C2)nc1	22.08	1.735
COC(=O)c1cc(C(=O)N2CCOCC2(C)C)n(-c2ccccc2)n1	-	8.41
CCOCCc1nc(-c2cnn3c(C)cc(C)nc23)no1	2.018	3.264
CN1CCN(S(=O)(=O)c2ccc(Sc3nccn3C)nc2)CC1	-13.75	6.561
CN(C)CCN1CCOC2(CCN(c3nccs3)CC2)c2ccccc21	28.46	-22.04
O=C(Nc1nccs1)C1CCN(Cc2cccc3c2OCCO3)CC1	24.87	27.88
Cc1ccc(OC2(C(=O)O)CCN(C(=O)c3cccc(F)c3)CC2)cn1	-	8.464
CC1CN(C(=O)c2cc[nH]c(=O)c2)c2ccccc21 (stereo not shown)	25.46	2.002
O=S(=O)(CCN1CCOC(Cn2cccn2)C1)c1ccccc1 (stereo not shown)	7.306	6.109
COCCN(Cc1cnn(C)c1)C(=O)C1CCN(C2CCCCC2)CC1	-	-15.56
COc1c(CNCc2cccc(Cn3cccn3)c2)c(C)nn1C	-13.06	-2.969
COCCN1CCN(C(C(=O)O)c2ccc(SC)cc2)CC1 (stereo not shown)	-21.9	-25.42

Some entries from above, unchanged:

| Compound | Mtb growth Cornell | Mtb heat-shock |
|---|---|---|
| `COCCN1CCN(C(C(=O)O)c2ccc(SC)cc2)CC1` (stereo not shown) | -21.9 | -25.42 |
| `Nc1nccnc1C(=O)N(Cc1ccccc1O)CC1CCCO1` (stereo not shown) | 20.37 | 8.355 |
| `CCOCCc1nc(-c2cnn3c(C)cc(C)nc23)no1` | 2.018 | 3.264 |
| `CC(=O)Nc1cccc(CNC(=O)N(C)Cc2ccccc2)c1` | 11.81 | -26.85 |
| `Cc1ccc(C(=O)N2CCOc3nc(C)ccc32)c(F)c1` | -2.985 | 7.643 |
| `CCOc1ccc(CC(=O)N2CCCC2c2cc(C)on2)cc1` (stereo not shown) | 13.13 | 0.8725 |

Data taken from ChEMBL document CHEMBL3988442, “University of Dundee, Small-Polar-MMV Screening Library” (2021).